## Primary screen of a compound library

Chains of the proteins cited; added tags and fusions are not shown.
UniProt I6X8D2, whole entry: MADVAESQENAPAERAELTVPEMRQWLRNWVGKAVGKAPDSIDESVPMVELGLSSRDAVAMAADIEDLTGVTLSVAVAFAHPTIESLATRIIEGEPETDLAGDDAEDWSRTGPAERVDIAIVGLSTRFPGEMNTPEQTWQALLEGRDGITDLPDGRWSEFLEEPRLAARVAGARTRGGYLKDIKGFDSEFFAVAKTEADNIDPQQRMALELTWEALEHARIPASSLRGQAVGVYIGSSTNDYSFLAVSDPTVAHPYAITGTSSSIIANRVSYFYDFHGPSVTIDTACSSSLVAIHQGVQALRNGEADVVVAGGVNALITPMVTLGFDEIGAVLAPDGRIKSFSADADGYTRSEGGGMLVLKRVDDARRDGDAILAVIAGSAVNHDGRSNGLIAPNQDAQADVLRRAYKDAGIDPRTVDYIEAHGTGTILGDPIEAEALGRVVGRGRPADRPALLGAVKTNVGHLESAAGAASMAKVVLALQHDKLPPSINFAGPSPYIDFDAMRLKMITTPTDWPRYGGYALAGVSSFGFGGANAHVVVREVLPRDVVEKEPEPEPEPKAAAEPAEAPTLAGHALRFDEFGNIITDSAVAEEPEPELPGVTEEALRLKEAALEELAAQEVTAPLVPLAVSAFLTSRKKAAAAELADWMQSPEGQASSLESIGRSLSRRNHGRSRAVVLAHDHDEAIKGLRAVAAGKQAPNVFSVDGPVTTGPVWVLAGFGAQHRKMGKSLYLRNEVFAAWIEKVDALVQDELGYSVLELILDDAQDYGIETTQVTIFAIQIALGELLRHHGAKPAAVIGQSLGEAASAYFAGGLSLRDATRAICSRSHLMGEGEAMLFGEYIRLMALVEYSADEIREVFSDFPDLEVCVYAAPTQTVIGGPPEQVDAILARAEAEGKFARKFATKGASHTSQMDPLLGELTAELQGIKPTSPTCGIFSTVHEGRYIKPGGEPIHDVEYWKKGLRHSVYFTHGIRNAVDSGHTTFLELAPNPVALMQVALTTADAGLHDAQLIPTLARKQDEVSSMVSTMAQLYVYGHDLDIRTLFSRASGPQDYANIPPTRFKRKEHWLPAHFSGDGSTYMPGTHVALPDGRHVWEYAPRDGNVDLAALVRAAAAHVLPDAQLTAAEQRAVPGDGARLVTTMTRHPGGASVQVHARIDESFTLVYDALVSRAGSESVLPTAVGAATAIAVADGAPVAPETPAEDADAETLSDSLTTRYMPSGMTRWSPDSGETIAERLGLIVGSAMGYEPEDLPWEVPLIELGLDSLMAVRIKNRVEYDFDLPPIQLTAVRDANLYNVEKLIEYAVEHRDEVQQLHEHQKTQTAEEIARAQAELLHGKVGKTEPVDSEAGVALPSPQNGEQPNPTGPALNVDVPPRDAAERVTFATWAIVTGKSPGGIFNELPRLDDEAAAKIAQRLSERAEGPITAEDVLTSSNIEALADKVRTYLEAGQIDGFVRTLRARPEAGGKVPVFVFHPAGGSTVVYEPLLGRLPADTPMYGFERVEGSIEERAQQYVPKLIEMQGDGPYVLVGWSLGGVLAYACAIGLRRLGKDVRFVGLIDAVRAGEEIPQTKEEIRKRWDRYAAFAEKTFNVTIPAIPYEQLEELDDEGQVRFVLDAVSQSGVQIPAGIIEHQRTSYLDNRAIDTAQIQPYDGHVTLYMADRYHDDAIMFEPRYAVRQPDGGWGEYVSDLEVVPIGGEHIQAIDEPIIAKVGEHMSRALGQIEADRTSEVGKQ

Measurements from “University of Dundee, Small-Polar-MMV Screening Library” (2021), ChEMBL document CHEMBL3988442.

A: 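Assay of Toxoplasma gondii numbers, read through their beta-galactosidase reporter with a colour substrate. Concentration: 10 µM. Higher reads as fewer parasites (inferred from which compounds were picked for retests). About 67,000 compounds were tested under these conditions; 0.38% (about 260) showed 50% or more at least once.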
B: 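Polyketide synthase Pks13, Mycobacterium tuberculosis (UniProt I6X8D2). Enzyme assay of the thioesterase domain of polyketide synthase 13; the read-out is not stated. Tested at 30 µM. The record gives no direction; the compounds picked for IC50 retests had high values, so higher reads as stronger inhibition. About 67,000 compounds were tested under these conditions; 0.46% (about 300) showed 50% or more at least once.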

Results are given as percent effect.
The controls that fix the scale are not given in the record; negative values are as filed.
The compounds are a random part of those screened.

Compound: O=C(O)CC1COCCN1Cc1ccccc1OCCc1ccccc1 (centres undefined)
A: 33.44
B: -8.77

Compound: CN(Cc1c(Cl)ccc2cccnc12)CC(C)(CO)CO
A: -2.733
B: -10.83

Compound: CC(=O)c1cc(C(=O)NC2(c3ccccc3)CCC2)n(C)c1
A: -0.863
B: -9.939

Compound: COc1ccccc1CC(=O)N1CCCC(c2cc(C)[nH]n2)C1 (centres undefined)
A: 9.56
B: 6.086

Compound: COCC(=O)NC(Cc1cc(N(C)C)nc(C2CC2)n1)c1ccccc1 (centres undefined)
A: -3.537
B: -8.244

Compound: CC(C)CN1CCC2(CCCNC2)C1=O.Cl (centres undefined)
A: -13.5

Compound: CC(=O)Nc1nc(CN2CCn3c(nnc3C3CC3)C2)cs1
A: 6.462
B: -13.38

Compound: CNC(=O)c1ccc(CNC(=O)c2cc(C(C)C)n(C)n2)cc1
A: 4.076
B: -8.561

Compound: Cc1noc(C)c1C(=O)NCc1cccnc1N(C)C
A: 0.04068
B: -11.42

Compound: C[C@@H]1CN(C(=O)[C@H]2CCCO2)C[C@]12CCN(c1ccsc1)C2=O
A: -56.03
B: 6.55

Compound: O=C(O)C(F)(F)F.[H][C@]12CCC[C@@]1(COCc1ccccn1)CN(S(=O)(=O)C1CC1)C2
A: -16.97

Compound: Fc1cccc(N2CCCC3(CN(Cc4ccncc4)CCO3)C2)c1 (centres undefined)
B: -19.24

Compound: CCOCCN1CCN(CC(=O)NC2(C#N)CCCC2)CC1CC (centres undefined)
A: -15.01
B: -0.1485

Compound: COc1ccc(CNCC2CNc3ccnn3C2)cn1 (centres undefined)
A: -8.331
B: -1.714

Compound: COc1ccccc1CNC(C)c1ccc(-n2ccnc2)cc1.Cl (centres undefined)
A: -15.35

Compound: Cc1cnc(N2CCC3(CCN(CC4CCCC4)C3=O)CC2)nc1.O=C(O)C(F)(F)F
A: 1.816

Compound: Cc1ccc(C(CCNCCN(C)C)C2CCOC(C)(C)C2)cc1 (centres undefined)
B: -19.76

Compound: [H][C@@]12C[C@H](C(=O)Nc3cccnc3)[C@@]([H])(CN(C(=O)NC3CCCC3)C1)O2
A: -0.9145

Compound: CC(NC(=O)N1CCN(c2nccs2)CC1)c1nncn1C (centres undefined)
A: -7.081
B: -1.908

Compound: Cc1nccc(C2(C)CCCNC2)n1.Cl.Cl (centres undefined)
A: 16.34

Compound: CS(=O)(=O)NC1CCCN(Cc2ccccn2)C1 (centres undefined)
A: -5.055
B: -26.19

Compound: Cc1ccc(NC2CCN(C(=O)COCC(F)(F)F)CC2)nn1
A: -28.18
B: -10.39

Compound: COC(=O)[C@@H]1Cc2ncn(C)c2CN1S(=O)(=O)c1ccc(Cl)cc1
A: 2.603
B: 8.331

Compound: COc1cccc(C(=O)N2CCCC(CNS(C)(=O)=O)C2)c1 (centres undefined)
A: -4.4
B: -8.848

Compound: Cc1nn(C)c(N(C)C)c1CNCc1ccc(Cn2cncn2)cc1
A: -28.39
B: -12.06

Compound: COC1CCCN(c2nc(C)nc3c2CCN(Cc2ccco2)CC3)C1 (centres undefined)
A: 3.918
B: -38.88

Compound: CCOCC(=O)NCC1Cn2nnc(-c3cccc(F)c3)c2CO1 (centres undefined)
A: -0.507
B: -23.79

Compound: CC(C)Nc1cc(N2CCC(n3cc(CCO)nn3)CC2)ncn1
A: 31.03
B: -13.74

Compound: c1cc(CN2CCCn3cnc(COCC4CC4)c3C2)ccn1
B: -32.69

Compound: O=C(NCCCn1cccn1)c1nc2ccccc2[nH]1
A: 8.977
B: 9.543

Compound: Cc1cccc(CN2CCN3C[C@H](Oc4cncnc4)C[C@H]3C2)n1
B: -3.639

Compound: [H][C@@]12C[C@H](C(=O)N(C)C)[C@@]([H])(CN(c3ncccn3)C1)O2
A: 3.079

Compound: Cc1cc(N2CCCC(N(C)C)C2)n2nccc2n1 (centres undefined)
A: -34.69
B: 7.85

Compound: COCC1CN(C(=O)Cc2ccccn2)Cc2c1cnn2CC1CC1.O=C(O)C(F)(F)F.O=C(O)C(F)(F)F (centres undefined)
A: 7.235

Compound: c1nc(N2CCOC(Cn3cncn3)C2)c2sccc2n1 (centres undefined)
A: 3.246
B: -356.4

Compound: CC(C)C[C@H](NC(=O)Cn1ccc2c(Cl)cccc21)C(=O)O
A: -0.9585
B: -3.781

Compound: CCc1nc(C2CCCN2CC(=O)Nc2cc(C)no2)no1 (centres undefined)
A: -2.525
B: 2.699

Compound: Cc1nc(CN(C)Cc2cnc(N3CCOCC3)s2)no1
A: 10.21
B: -15.79

Compound: Cc1cccc(C(=O)NCc2ccc(N3CCCCCC3)nc2)n1
A: 6.551
B: -2.638

Compound: Fc1cnc(N2CCO[C@H]3CN(CC4CCOC4)C[C@H]32)nc1 (some centres undefined)
B: -45.96

Compound: Cl.Cl.c1ccc(-c2cnc3n2CCNC32CCNCC2)cc1
A: 2.319

The last 5 entries again:

{"compound": "CCc1nc(C2CCCN2CC(=O)Nc2cc(C)no2)no1", "stereo": "centres undefined", "A": -2.525, "B": 2.699}
{"compound": "Cc1nc(CN(C)Cc2cnc(N3CCOCC3)s2)no1", "A": 10.21, "B": -15.79}
{"compound": "Cc1cccc(C(=O)NCc2ccc(N3CCCCCC3)nc2)n1", "A": 6.551, "B": -2.638}
{"compound": "Fc1cnc(N2CCO[C@H]3CN(CC4CCOC4)C[C@H]32)nc1", "stereo": "some centres undefined", "B": -45.96}
{"compound": "Cl.Cl.c1ccc(-c2cnc3n2CCNC32CCNCC2)cc1", "A": 2.319}